No constants are given. Whether binding was seen depends on the method and setting. In cells and extracts the contact can be indirect. Some binding calls cover weakened binding; strength is not graded here.
What was measured:
Gβ1-SmBiT [1] = target: Gβ1-SmBiT (UniProt P62873); assay: condition: only with CXCR7 as the co-expressed receptor; split reporter; NanoBiT in live HEK293 cells, three-gene combination (30 ng each): CXCR7 co-expressed with SmBiT-tagged Gβ1 and GRK2-LgBiT or GRK5-LgBiT; SDF-1α or vehicle
Gβ1-SmBiT [2] = target: Gβ1-SmBiT (UniProt P62873); assay: split reporter; NanoBiT in live HEK293 cells, three-gene combination (30 ng each): CXCR4 co-expressed with SmBiT-tagged Gβ1 and GRK2-LgBiT or GRK5-LgBiT; SDF-1α or vehicle
[3] = target: epitope-tagged CXCR7 (FLAG-CXCR7 as bait, HA-CXCR7 as prey) (UniProt P25106); assay: cross-linking + co-IP; HEK293 cells incubated with 2 mM BS3 in PBS for 30 min before lysis; immunoprecipitation with anti-FLAG beads (results: RIPA buffer for increased stringency; methods: lysis buffer); western blot with anti-HA
[4] = target: epitope-tagged CXCR7 (FLAG-CXCR7 as bait, HA-CXCR7 as prey) (UniProt P25106); assay: co-IP; HEK293 cells expressing epitope-tagged receptors; lysis buffer (150 mM NaCl, 50 mM Tris-HCl pH 7.5, 10 mM KCl, 1% Triton X-100); anti-FLAG antibody-conjugated beads, washed at least four times; western blot with anti-HA; no cross-linker

Sequences of proteins named here, by UniProt entry; tags and fusion partners are left off.
UniProt P62873: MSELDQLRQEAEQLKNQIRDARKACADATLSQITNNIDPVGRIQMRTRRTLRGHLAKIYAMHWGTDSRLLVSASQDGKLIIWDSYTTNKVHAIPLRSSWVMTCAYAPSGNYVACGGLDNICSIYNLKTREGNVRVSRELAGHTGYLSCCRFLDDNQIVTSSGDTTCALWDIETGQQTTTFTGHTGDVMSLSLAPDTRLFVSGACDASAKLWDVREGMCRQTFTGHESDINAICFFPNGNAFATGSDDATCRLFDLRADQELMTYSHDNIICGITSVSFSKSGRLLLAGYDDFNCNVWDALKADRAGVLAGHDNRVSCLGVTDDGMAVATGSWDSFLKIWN
UniProt P25106: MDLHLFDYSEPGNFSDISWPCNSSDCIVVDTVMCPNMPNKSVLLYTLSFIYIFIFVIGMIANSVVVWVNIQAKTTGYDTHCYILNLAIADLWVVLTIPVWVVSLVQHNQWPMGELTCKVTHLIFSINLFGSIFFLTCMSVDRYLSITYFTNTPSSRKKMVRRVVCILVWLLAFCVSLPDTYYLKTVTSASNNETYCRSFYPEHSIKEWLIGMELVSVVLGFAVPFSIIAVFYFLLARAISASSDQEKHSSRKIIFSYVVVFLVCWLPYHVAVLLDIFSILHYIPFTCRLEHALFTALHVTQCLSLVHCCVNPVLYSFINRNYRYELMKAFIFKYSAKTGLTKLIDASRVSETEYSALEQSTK
UniProt P34947: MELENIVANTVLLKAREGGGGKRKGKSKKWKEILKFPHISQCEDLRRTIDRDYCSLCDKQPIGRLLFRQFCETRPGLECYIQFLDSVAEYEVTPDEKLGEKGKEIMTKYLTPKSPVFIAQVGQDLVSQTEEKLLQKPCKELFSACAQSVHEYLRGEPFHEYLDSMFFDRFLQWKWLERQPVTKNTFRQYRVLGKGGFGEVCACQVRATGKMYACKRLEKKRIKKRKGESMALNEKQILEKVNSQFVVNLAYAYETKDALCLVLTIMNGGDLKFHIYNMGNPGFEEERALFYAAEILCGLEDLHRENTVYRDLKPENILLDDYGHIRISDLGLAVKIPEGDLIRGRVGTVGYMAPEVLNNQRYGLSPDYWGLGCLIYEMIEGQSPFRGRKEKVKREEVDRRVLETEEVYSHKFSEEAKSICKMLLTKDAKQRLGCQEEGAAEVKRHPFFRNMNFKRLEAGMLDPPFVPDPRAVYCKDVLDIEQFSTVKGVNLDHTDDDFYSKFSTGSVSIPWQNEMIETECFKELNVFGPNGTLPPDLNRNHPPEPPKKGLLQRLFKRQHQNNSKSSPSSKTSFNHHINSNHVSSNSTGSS

Substance	binding (Gβ1-SmBiT [1])	binding (Gβ1-SmBiT [2])	binding [3]	binding [4]
GRK5-LgBiT (from UniProt P34947 1-590) (enzyme)	no binding	binds	–	–
epitope-tagged CXCR7 (FLAG-CXCR7 as bait, HA-CXCR7 as prey) (from UniProt P25106 1-362) (receptor)	–	–	binds	binds

Source: article PMC7686738
